“Also recorded” adds a separate entry of the source. At least one structure is not confirmed: it was looked up by name or label, or the drawing left a doubt.
System: Ins-1 832/3 cells
Test: INS1 cell insulin secretion assay
Assay type: cell-based, rat
Settings: 16.7 mM glucose; wide concentration range
Method: INS1 Cell Culture and Insulin Secretion Assays. The glucose responsive rat beta cell line, INS1 (832/3) was cultured in RPMI 1640 (11.1 mM glucose) supplemented with NaHCO3, HEPES, heat-inactivated FBS, L-glutamine, sodium pyruvate and β-mercaptoethanol. 3 days prior to assay, 1×10^5 cells were plated per well in 96-well cell culture plates. Twenty-four hours prior to the assay, the medium was aspirated and fresh growth medium added. On the day of the assay, confluent Ins-1 832/3 cells were washed once with sterile PBS and pre-incubated for 2 hours in KRBB supplemented with 25 mM HEPES and containing 1.7 mM glucose and 0.2% BSA. Cells were then stimulated for 2 hours with KRBB containing 16.7 mM glucose and the desired concentrations of agonists/antagonists. Secretion buffer was collected and the secreted and cellular insulin content determined by acid/ethanol extraction, as described above.
Insulin secretion assays in Ins-1 832/3 cells were performed wherein the dose of PGE2 (a physiological agonist of EP3) or sulprostone (an EP3-selective agonist) were varied over a wide concentration range. […] The minimum dose of sulprostone yielding maximum effect on GSIS inhibition was approximately 10 nM and the minimum dose of PGE2 was approximately 50 nM.

CS(=O)(=O)NC(=O)CCC/C=C\C[C@H]1C(=O)C[C@@H](O)[C@@H]1/C=C/[C@@H](O)COc1ccccc1 [sulprostone]
inhibition of GSIS (dose dependence): dose-dependently suppresses insulin secretion; also recorded: dose-dependently inhibited GSIS

Source: patent US9381176B2, “E-prostanoid receptor, Ptger3, as a novel anti-diabetic therapeutic target” (Wisconsin Alumni Research Foundation, priority 2012, dated 2016)
